Measurements reported in PubChem BioAssay AID493246 (Drosophila RNAi Screening Center, 2011)
The deposit covers about 21,000 reagents; this is a random part of those with a known target gene and a result. Of all reagents, 429 (2%) are marked active. 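Values are raw and not normalised between plates; calls rest on per-plate z-scores that were not deposited.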 Names joined by + are all predicted targets of the reagent. Not stated in the record: the amount of reagent, the time to read-out.

Purpose: 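Genes fly cells need to grow and stay alive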 (primary screen)
System: Drosophila Kc and S2R+ cells
Reagents: long dsRNA against Drosophila genes
Measurement: 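Cell number per well after knock-down, printed as raw plate values; calls were based on per-plate z-scores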
Reading the numbers: Kc cell number and S2R+ cell number: higher = more cells remaining
Hit rule: 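Active when the per-plate z-score of cell number is 3 or more in the direction of fewer cells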

What did the screen give for Rad1 + Sws1 [DRSC00778]?
Kc cell number, rep 1: 1.80e6; Kc cell number, rep 2: 1.80e6; S2R+ cell number, rep 1: 1.15e6; S2R+ cell number, rep 2: 1.28e6; call: inactive

With CG31760 [DRSC02590], what does the deposit list?
Kc cell number, rep 1: 1.49e6; Kc cell number, rep 2: 1.56e6; S2R+ cell number, rep 1: 1.18e6; S2R+ cell number, rep 2: 1.35e6; call: inactive

For Ltn1 [DRSC11056], what was measured?
Kc cell number, rep 1: 1.44e6; Kc cell number, rep 2: 1.55e6; S2R+ cell number, rep 1: 1.03e6; S2R+ cell number, rep 2: 1.08e6; call: inactive

With Ltn1 [DRSC11058], how do the results read?
Kc cell number, rep 1: 1.32e6; Kc cell number, rep 2: 1.41e6; S2R+ cell number, rep 1: 1.22e6; S2R+ cell number, rep 2: 1.28e6; call: inactive

With CG2811 [DRSC04318], what does the deposit list?
Kc cell number, rep 1: 1.56e6; Kc cell number, rep 2: 1.56e6; S2R+ cell number, rep 1: 1.17e6; S2R+ cell number, rep 2: 1.38e6; call: inactive

What is on record for mge [DRSC08721]?
Kc cell number, rep 1: 1.68e6; Kc cell number, rep 2: 1.66e6; S2R+ cell number, rep 1: 9.21e5; S2R+ cell number, rep 2: 1.15e6; call: inactive

How did the screen score COX1 (retired record) [DRSC21275]?
Kc cell number, rep 1: 1.53e6; Kc cell number, rep 2: 1.57e6; S2R+ cell number, rep 1: 1.11e6; S2R+ cell number, rep 2: 1.25e6; call: inactive

What did the screen give for CG14860 [DRSC14983]?
Kc cell number, rep 1: 1.39e6; Kc cell number, rep 2: 1.48e6; S2R+ cell number, rep 1: 1.31e6; S2R+ cell number, rep 2: 1.49e6; call: inactive

Which result is listed for Root [DRSC15972]?
Kc cell number, rep 1: 1.81e6; Kc cell number, rep 2: 1.63e6; S2R+ cell number, rep 1: 1.02e6; S2R+ cell number, rep 2: 1.16e6; call: inactive

What is on record for mst [DRSC20582]?
Kc cell number, rep 1: 1.54e6; Kc cell number, rep 2: 1.48e6; S2R+ cell number, rep 1: 1.05e6; S2R+ cell number, rep 2: 1.17e6; call: inactive

How did the screen score nac [DRSC16520]?
Kc cell number, rep 1: 1.63e6; Kc cell number, rep 2: 1.84e6; S2R+ cell number, rep 1: 1.32e6; S2R+ cell number, rep 2: 1.42e6; call: inactive

How did the screen score Cpr5C [DRSC18340]?
Kc cell number, rep 1: 1.36e6; Kc cell number, rep 2: 1.42e6; S2R+ cell number, rep 1: 1.05e6; S2R+ cell number, rep 2: 1.18e6; call: inactive

What is on record for CG9920 [DRSC16578]?
Kc cell number, rep 1: 1.20e6; Kc cell number, rep 2: 1.26e6; S2R+ cell number, rep 1: 1.20e6; S2R+ cell number, rep 2: 1.32e6; call: inactive

With CG4953 [DRSC02792], how do the results read?
Kc cell number, rep 1: 1.33e6; Kc cell number, rep 2: 1.37e6; S2R+ cell number, rep 1: 1.18e6; S2R+ cell number, rep 2: 1.28e6; call: inactive

How did the screen score mRpL12 [DRSC10467]?
Kc cell number, rep 1: 1.25e6; Kc cell number, rep 2: 1.35e6; S2R+ cell number, rep 1: 1.10e6; S2R+ cell number, rep 2: 1.07e6; call: inactive

What did the screen give for CG40551 (retired record) [DRSC21229]?
Kc cell number, rep 1: 1.30e6; Kc cell number, rep 2: 1.36e6; S2R+ cell number, rep 1: 1.06e6; S2R+ cell number, rep 2: 1.16e6; call: inactive

With CG42496 + Ppcdc [DRSC03886], what was measured?
Kc cell number, rep 1: 1.38e6; Kc cell number, rep 2: 1.40e6; S2R+ cell number, rep 1: 9.73e5; S2R+ cell number, rep 2: 1.15e6; call: inactive

For CG11790 [DRSC14390], what was measured?
Kc cell number, rep 1: 1.80e6; Kc cell number, rep 2: 1.84e6; S2R+ cell number, rep 1: 1.48e6; S2R+ cell number, rep 2: 1.53e6; call: inactive

What did the screen give for CG5194 [DRSC10492]?
Kc cell number, rep 1: 1.31e6; Kc cell number, rep 2: 1.41e6; S2R+ cell number, rep 1: 1.23e6; S2R+ cell number, rep 2: 1.20e6; call: inactive

With alka [DRSC06136], what was measured?
Kc cell number, rep 1: 1.56e6; Kc cell number, rep 2: 1.66e6; S2R+ cell number, rep 1: 1.28e6; S2R+ cell number, rep 2: 1.46e6; call: inactive

How did the screen score CG14230 [DRSC19586]?
Kc cell number, rep 1: 1.75e6; Kc cell number, rep 2: 1.78e6; S2R+ cell number, rep 1: 1.04e6; S2R+ cell number, rep 2: 1.11e6; call: inactive

2 of these entries in another layout:
target gene | DRSC id | Kc cell number, rep 1 | Kc cell number, rep 2 | S2R+ cell number, rep 1 | S2R+ cell number, rep 2 | call
CG4953 | DRSC02792 | 1.33e6 | 1.37e6 | 1.18e6 | 1.28e6 | inactive
mRpL12 | DRSC10467 | 1.25e6 | 1.35e6 | 1.10e6 | 1.07e6 | inactive
